Measured values: paper PMC3867403

T1: ALK5-Flag (transforming growth factor-β receptor 1, TGFBR1) (UniProt P36897)
T1 sequence: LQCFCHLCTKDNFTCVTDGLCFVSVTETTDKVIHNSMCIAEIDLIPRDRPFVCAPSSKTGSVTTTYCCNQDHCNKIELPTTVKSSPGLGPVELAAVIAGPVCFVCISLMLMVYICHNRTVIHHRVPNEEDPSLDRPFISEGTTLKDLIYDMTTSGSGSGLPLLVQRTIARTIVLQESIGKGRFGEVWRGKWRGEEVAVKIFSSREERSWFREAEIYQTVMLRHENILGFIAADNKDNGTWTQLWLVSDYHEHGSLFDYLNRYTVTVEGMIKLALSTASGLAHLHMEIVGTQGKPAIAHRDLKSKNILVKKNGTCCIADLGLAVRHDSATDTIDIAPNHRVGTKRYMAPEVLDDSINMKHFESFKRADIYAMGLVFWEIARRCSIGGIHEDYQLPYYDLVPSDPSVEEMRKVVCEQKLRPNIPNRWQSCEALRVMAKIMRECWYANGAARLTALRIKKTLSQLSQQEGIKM


Legend:
[1] = target: T1, ALK5-Flag (transforming growth factor-β receptor 1, TGFBR1); assay: co-IP; lysate (0.3% CHAPS in PBS with Ca/Mg) of HEK293 cells transfected with ALK5-Flag incubated with recombinant GST or GST-LumC50 at 4°C for 1 h with 0.5 mg/ml DSP; anti-flag Sepharose beads, eluted with flag peptide; blots with anti-flag and anti-GST; only the binder purified
[2] = target: GST-Lum (recombinant GST-lumican fusion protein) (mouse); assay: pull-down; intact HEK293 cells transfected with ALK5-Flag incubated with GST-Lum or GST (10 µg/ml) at 4°C for 1 h, then 0.5 mg/ml DSP cross-linker for 1 h; lysate applied to a glutathione-Sepharose column, eluted with 20 mM glutathione; Western blot with 1% MeSH; only the target purified
[3] = target: LumN288-c-myc (N-terminal Lum, C-terminal deletion); assay: co-IP; HEK293 cells co-transfected with ALK5-flag and Lum-myc, LumN288-myc or LumC50-myc; 0.5 mg/ml DSP on ice for 45 min; lysis in 50 mM Tris/HCl pH 7.4, 150 mM NaCl, 1% Triton X100; anti-c-myc Sepharose beads, eluted with c-myc peptide; blots with anti-flag and anti-c-myc
[4] = target: LumC50-c-myc (C-terminal Lum, N-terminal deletion); assay: as above

Row | Molecule | binding [1] | binding [2] | binding [3] | binding [4]
1 | GST-LumC50 (GST fusion with the C-terminal 50 amino acids of Lum) (mouse) (domain or fragment) | binds | – | – | –
2 | ALK5-Flag (transforming growth factor-β receptor 1, TGFBR1) (receptor, UniProt P36897 34-503) LQCFCHLCTKDNFTCVTDGLCFVSVTETTDKVIHNSMCIAEIDLIPRDRPFVCAPSSKTGSVTTTYCCNQDHCNKIELPTTVKSSPGLGPVELAAVIAGPVCFVCISLMLMVYICHNRTVIHHRVPNEEDPSLDRPFISEGTTLKDLIYDMTTSGSGSGLPLLVQRTIARTIVLQESIGKGRFGEVWRGKWRGEEVAVKIFSSREERSWFREAEIYQTVMLRHENILGFIAADNKDNGTWTQLWLVSDYHEHGSLFDYLNRYTVTVEGMIKLALSTASGLAHLHMEIVGTQGKPAIAHRDLKSKNILVKKNGTCCIADLGLAVRHDSATDTIDIAPNHRVGTKRYMAPEVLDDSINMKHFESFKRADIYAMGLVFWEIARRCSIGGIHEDYQLPYYDLVPSDPSVEEMRKVVCEQKLRPNIPNRWQSCEALRVMAKIMRECWYANGAARLTALRIKKTLSQLSQQEGIKM | – | binds | no binding | binds

These are yes or no findings as the source states them, for the method shown. In cells and extracts the contact can be indirect. For some of these results: Binding can be weak; no strength is given. Where a sequence is shown, tags or fusion partners need not be part of it.
